{"source": "PubChem BioAssay AID1259425 (University of Nebraska Medical Center, 2018)", "screen": "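Compare each knockdown with KSR1 silencing using changes in marker transcripts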 (primary screen)", "cells": "HCT116 human colon cancer cells", "knock-down reagent": "siRNA pool against human genes, 50 nM siRNA", "measured": "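mRNA of six signature genes measured together by branched-DNA assay after 50 nM siRNA pool, blank removed, divided by geometric mean of two housekeeping genes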", "scale": "BNIP3L mRNA: higher = more BNIP3L transcript after knockdown", "note": "Here is a random part of about 14,000 reagents tested. Further read-outs or replicates are left out here. Not stated in the record: the time to read-out."}
The first 2 entries, to show the layout:
{"gene":"TCF21 (transcription factor 21)","BNIP3L mRNA, set 1":0.0637}
{"gene":"ADPRS (ADP-ribosylserine hydrolase)","BNIP3L mRNA, set 1":0.181}

Main list, from the first entry:
{"gene":"TCF21 (transcription factor 21)","BNIP3L mRNA, set 1":0.0637}
{"gene":"ADPRS (ADP-ribosylserine hydrolase)","BNIP3L mRNA, set 1":0.181}
{"gene":"CRIPTO (cripto, EGF-CFC family member)","BNIP3L mRNA, set 1":0.113}
{"gene":"FOCAD (focadhesin)","BNIP3L mRNA, set 1":0.104}
{"gene":"SDF2L1 (stromal cell derived factor 2 like 1)","BNIP3L mRNA, set 1":0.0653}
{"gene":"ZNF273 (zinc finger protein 273)","BNIP3L mRNA, set 1":0.0646}
{"gene":"EEF2 (eukaryotic translation elongation factor 2)","BNIP3L mRNA, set 1":0.0895}
{"gene":"SLC75A1","BNIP3L mRNA, set 1":0.339}
{"gene":"TMEM35A (transmembrane protein 35A)","BNIP3L mRNA, set 1":0.0871}
{"gene":"ZBTB48 (zinc finger and BTB domain containing 48)","BNIP3L mRNA, set 1":0.13}
{"gene":"PCDHB7 (protocadherin beta 7)","BNIP3L mRNA, set 1":0.117}
{"gene":"IL2RA (interleukin 2 receptor subunit alpha)","BNIP3L mRNA, set 1":0.0647}
{"gene":"THEMIS2 (thymocyte selection associated family member 2)","BNIP3L mRNA, set 1":0.156}
{"gene":"SMN2 (survival of motor neuron 2, centromeric)","BNIP3L mRNA, set 1":0.107}
{"gene":"CTNNA3 (catenin alpha 3)","BNIP3L mRNA, set 1":0.0828}
{"gene":"ATP6V0A2 (ATPase H+ transporting V0 subunit a2)","BNIP3L mRNA, set 1":0.122}
{"gene":"NTRK3 (neurotrophic receptor tyrosine kinase 3)","BNIP3L mRNA, set 1":0.0577}
{"gene":"PUDP (pseudouridine 5'-phosphatase)","BNIP3L mRNA, set 1":0.0427}
{"gene":"PRSS16 (serine protease 16)","BNIP3L mRNA, set 1":0.119}
